# Results as given in patent publication US20240043860A1, “NOVEL HYDROXYPHENYLPYRUVATE DIOXYGENASE POLYPEPTIDES AND METHODS OF USE THEREOF” (Syngenta Crop Protection AG, priority 2020, published 2024).
# The source holds more than one record for some entries. Only these are listed. The source may hold further records. The values listed for one entry do not match, cause unknown; dose, time, organism, isomer or construct need not be as stated for each record.
# System: transgenic tobacco plants expressing mutant HPPD SEQ ID NO: 122
# Assay: spray test, herbicidal damage scoring
# Type: in vivo
# Conditions: Table 4.4; 7 days after treatment; SEQ ID NO: 122; 100=complete death, 0=no damage; one value per event
smiles,measurement,value
"COc1ccc(-n2nc(C)cc(C(=O)C3C(=O)CCCC3=O)c2=O)cc1OC [Herbicide C, dioxopyritrione]","herbicidal damage scoring, Herbicide C (100 g/ha)","80, 35, 45"
